Measurements taken from the supplement of paper PMC12872613.
Counter-ions that a name gives are not always drawn. The list shows a part of the results. Cut-off read from the data, not from the text of the source: active = 0.7 or more and inactive = the rest. Repeats are few or missing, and single values can be far off.

Tested on: MiaPaCa-2 CLSA-25
Assay: cell death relative to DMSO vehicle (fraction); higher = more cytotoxic
Settings: 5 µM; treatment time 48 h; medium cystine 25 µM

For COc1cc(OC)c(C=C2C(=O)Nc3ccccc32)c(OC)c1, which cell death is on record?
Its cell death is inactive: 0.659.

Oc1ncnc2[nH]ncc12 [Allopurinol] was tested. Which cell death did it give?
Its cell death is inactive: 0.0803.

Which cell death does the source give for CN1c2ccccc2C(=O)Nc2cnc(Nc3ccc(N4CCC(O)CC4)cc3)nc21 here?
Its cell death is inactive: 0.448.

For COc1ccc(Cl)cc1C(=O)NCCc1ccc(S(=O)(=O)NC(=O)NC2CCCCC2)cc1 [Glyburide], which cell death is on record?
The cell death was inactive: 0.0476.

For O=C(NNc1ccccc1)c1ccncc1 [PluriSln 1], which cell death is on record?
The cell death was inactive: 0.164.

With O=C(Nc1ccccc1)c1ccccc1O [Salicylanilide] as the molecule, how does the cell death read?
The cell death was active: 0.732.

How did the cell death turn out when N#CN=C(NCCCCCCOc1ccc(Cl)cc1)Nc1ccncc1 was run?
Its cell death is inactive: 0.685.

With Nc1nc(=O)c2nc(CNc3ccc(C(=O)N[C@@H](CCC(=O)O)C(=O)O)cc3)cnc2[nH]1 [Folic acid] as the molecule, how does the cell death read?
Its cell death is inactive: -0.0104.

With NS(=O)(=O)c1cc2c(cc1Cl)NCNS2(=O)=O [Hydrochlorothiazide] as the molecule, how does the cell death read?
Its cell death is inactive: 0.227.

With OC[C@@H](O)[C@@H](O[C@@H]1O[C@H](CO)[C@H](O)[C@H](O)[C@H]1O)[C@H](O)[C@@H](O)CO [Lactitol monohydrate] as the molecule, how does the cell death read?
Its cell death is inactive: 0.173.

Which cell death does the source give for C[C@H](CCC(=O)O)[C@H]1CC[C@H]2[C@@H]3C(=O)C[C@@H]4CC(=O)CC[C@]4(C)[C@H]3CC(=O)[C@]12C [Dehydrocholic acid] here?
Its cell death is inactive: 0.281.

For O=c1oc2cc(O)ccc2s1 [Tioxolone], which cell death is on record?
Its cell death is inactive: 0.00101.

With Cc1cc(CC(=O)O)n(C)c1C(=O)c1ccc(Cl)cc1 [Zomepirac Sodium] as the molecule, how does the cell death read?
Its cell death is inactive: 0.17.

How did the cell death turn out when Cc1ccc(S(=O)(=O)NC(=O)NN2CC3CCCC3C2)cc1 (centres undefined) [Gliclazide] was run?
Its cell death is inactive: 0.362.

For CC(C)(F)C[C@H](N[C@@H](c1ccc(-c2ccc(S(C)(=O)=O)cc2)cc1)C(F)(F)F)C(=O)NC1(C#N)CC1 [Odanacatib], which cell death is on record?
Its cell death is inactive: 0.396.

Which cell death does the source give for C/C(O)=C(\C#N)C(=O)Nc1ccc(C(F)(F)F)cc1 [Teriflunomide] here?
The cell death was inactive: 0.109.

For COC1=C[C@@H]2[C@@H]3Cc4ccc(OC)c(O)c4[C@]2(CCN3C)CC1=O [Sinomenine hydrochloride], which cell death is on record?
The cell death was inactive: -0.00107.

Which cell death does the source give for CC(C)[C@]12O[C@H]1[C@@H]1O[C@]13[C@]1(O[C@H]1C[C@H]1C4=C(CC[C@@]13C)C(=O)OC4)[C@@H]2O [Triptolide] here?
The cell death was inactive: 0.584.

With COc1ccc(/C=C/C=C2C(=O)NC(=O)NC2=O)cc1 as the molecule, how does the cell death read?
Its cell death is active: 0.704.

For COC(=O)[C@H]1[C@H]2C[C@@H]3c4[nH]c5cc(OC)ccc5c4CCN3C[C@H]2C[C@@H](OC(=O)c2cc(OC)c(OC)c(OC)c2)[C@@H]1OC [Reserpine], which cell death is on record?
The cell death was inactive: 0.108.

Which cell death does the source give for CC(=O)/N=c1/sc(S(N)(=O)=O)nn1C [Methazolamide] here?
Its cell death is inactive: 0.177.

How did the cell death turn out when CC(C)c1noc(N2CCC(COc3ccc(-c4ccc(S(C)(=O)=O)cc4)nc3)CC2)n1 was run?
Its cell death is inactive: 0.394.

For NS(=O)(=O)c1cc2c(cc1C(F)(F)F)NC(Cc1ccccc1)NS2(=O)=O (centres undefined) [Bendroflumethiazide], which cell death is on record?
The cell death was inactive: 0.138.

Which cell death does the source give for COc1ccccc1N1CCN(CCN(C(=O)C2CCCCC2)c2ccccn2)CC1 here?
The cell death was inactive: 0.147.

For CS(=O)(=O)n1cc2c(n1)CN([C@H]1CO[C@H](c3cc(F)ccc3F)[C@@H](N)C1)C2 [Omarigliptin], which cell death is on record?
Its cell death is inactive: 0.476.

Which cell death does the source give for CCCN1CCN(c2ccc(C(=O)NC3(C(=O)NCC#N)CCCCC3)cc2)CC1 [Balicatib] here?
The cell death was inactive: 0.27.

Which cell death does the source give for O=C1S/C(=C\c2ccc(OCc3cccc(B(O)O)c3)cc2)C(=O)N1Cc1ccc(F)cc1 here?
Its cell death is active: 0.814.

How did the cell death turn out when C[C@]12CCC(=O)C=C1CC[C@@H]1[C@@H]2C(=O)C[C@@]2(C)[C@H]1CC[C@]2(O)C(=O)CO [Cortisone] was run?
The cell death was inactive: 0.0774.

Which cell death does the source give for NCCc1ccc(S(=O)(=O)F)cc1 [AEBSF hydrochloride] here?
The cell death was inactive: 0.396.

For CCN(CC)CCN(Cc1ccc(-c2ccc(C(F)(F)F)cc2)cc1)C(=O)Cn1c(SCc2ccc(F)cc2)nc(=O)c2c1CCC2 [Darapladib], which cell death is on record?
Its cell death is active: 0.926.

For COc1ccc(-c2nc3cc(C4=NNC(=O)CC4C)ccc3[nH]2)cc1 (centres undefined) [Pimobendan], which cell death is on record?
Its cell death is inactive: 0.591.

O=C(O)[C@H](CC(=O)N1C[C@H]2CCCC[C@H]2C1)Cc1ccccc1 [Mitiglinide calcium] was tested. Which cell death did it give?
The cell death was active: 0.832.

COc1cc(-c2nc3ccccc3s2)ccc1O was tested. Which cell death did it give?
The cell death was inactive: 0.121.

With CCCC(=O)O[C@]1(C(=O)CO)CC[C@H]2[C@@H]3CCC4=CC(=O)CC[C@]4(C)[C@H]3[C@@H](O)C[C@@]21C [Hydrocortisone butyrate] as the molecule, how does the cell death read?
Its cell death is inactive: 0.142.

How did the cell death turn out when Cc1ccc(Cl)c(Nc2ccccc2C(=O)O)c1Cl [Meclofenamate Sodium] was run?
Its cell death is inactive: 0.18.

Which cell death does the source give for Cc1ncc(CO)c(CO)c1O [Metadoxine] here?
The cell death was active: 0.871.

For CCCCC(=O)O[C@]1(C(=O)CO)CC[C@H]2[C@@H]3CCC4=CC(=O)CC[C@]4(C)[C@H]3[C@@H](O)C[C@@]21C [Hydrocortisone Valerate], which cell death is on record?
The cell death was inactive: 0.167.

For O=C([O-])C(Cl)Cl.[Na+] [Sodium Dichloroacetate], which cell death is on record?
The cell death was inactive: 0.204.

With C#CCN(C)Cc1ccccc1 [Pargyline hydrochloride] as the molecule, how does the cell death read?
Its cell death is inactive: 0.0289.
